The record followed here is article PMC12170836.

Results are given in words; binding and its absence hold for the method and conditions named. Binding seen in cells or lysates may run through a third protein. Binding can be weak; no strength is given. Tags and fused reporters may be left off the sequences shown.

This experiment has as its target T1, ARIH2-FLAG (UniProt Q9Z1K6).
T1 sequence: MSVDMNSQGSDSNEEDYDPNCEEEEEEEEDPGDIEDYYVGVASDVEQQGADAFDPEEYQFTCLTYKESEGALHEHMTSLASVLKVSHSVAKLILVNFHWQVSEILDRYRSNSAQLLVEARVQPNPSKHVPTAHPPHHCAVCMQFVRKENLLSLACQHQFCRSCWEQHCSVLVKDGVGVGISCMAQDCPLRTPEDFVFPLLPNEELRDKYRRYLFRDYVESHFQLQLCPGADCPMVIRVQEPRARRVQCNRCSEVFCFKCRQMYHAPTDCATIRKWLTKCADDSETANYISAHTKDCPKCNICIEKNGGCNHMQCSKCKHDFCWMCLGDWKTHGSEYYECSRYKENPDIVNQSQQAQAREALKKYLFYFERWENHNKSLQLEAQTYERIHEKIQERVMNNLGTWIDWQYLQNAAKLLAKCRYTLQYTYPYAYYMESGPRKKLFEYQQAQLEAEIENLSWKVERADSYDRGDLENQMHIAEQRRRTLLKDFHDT
Nature of the experiment: co-IP; HEK293T cells co-transfected for 30 h; lysates in RIPA buffer; immunoprecipitated with anti-FLAG beads, immunoblotted with anti-HA and anti-FLAG; for the ARIH2-FLAG panels cells were treated with MG132 (20 μM) for 6 h. (Immunoblotting shows a protein as a band on a membrane.)

Turning to PPARγ∆AF-HA (from UniProt P37238), the binding result is “binds”.

PPARγ∆DBD-HA (from UniProt P37238): the binding entry is on record as “binds”.

As for PPARγ∆LBD-HA (from UniProt P37238), the binding entry is given as “binds”.
